Assay results published in PubChem BioAssay AID2685 (National Center for Advancing Translational Sciences (NCATS), 2010).
This is one part of the list. Shown are side measurements of this screen, not its main read-out; they come without a call. Compounds called inactive in the main read-out are mostly missing here. Words in brackets tell the shape of the fitted curve; partial curves, single points and poor fits give uncertain potencies.

Test: qHTS Assay for Lipid Storage Modulators in Drosophila S3 Cells;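 as to cell number change: cells counted by Cell Tracker Red CMTPX staining in the red channel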
Conditions: BODIPY lipid droplet fluorescence, 18-24 h; for cell number change: measured here: cell count max response, cells fed with added oleic acid
In short: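 Drosophila S3 cells got compounds at several concentrations plus oleic acid (400 uM solution). Laser-scanning cytometry with 488 nm excitation read lipid droplets at 500-530 nm and cells at 575-640 nm. Percent activity was relative to 20 uM Triacsin C.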

[1] = measured here: lipid fluorescence (Fed channel) AC50, cells fed with added oleic acid
[2] = measured here: cell number channel AC50, cells fed with added oleic acid

SMILES	cell number change [%]	AC50 [1]	AC50 [2]
Cc1ccc(OCC(O)Cn2c(=N)n(CCN3CCOCC3)c3ccccc32)cc1 (configuration not stated)	-7.37	29.1 µM [rising, single point]	–
Cc1ccc2c(c1)C1CC(C)(O2)N(c2cccc(C(=O)N3CCN(c4ccccn4)CC3)c2)C(=O)N1 (configuration not stated)	-24.1	29.1 µM [falling, single point]	–
O=C(NCC1CCCO1)c1ccc(S(=O)(=O)N2CCCCC2)cc1 (configuration not stated)	4.14	3.26 µM [falling, full curve]	–
O=C(COc1cc(Cl)c(Cl)cc1Cl)NCCN1CCOCC1	27	0.651 µM [falling, single point]	–
Cn1c2ccccc2c2cnn(CC(=O)Nc3cccc(F)c3)c(=O)c21	-32	29.1 µM [falling, single point]	29.1 µM [falling, single point]
CCCN(c1ccccc1F)S(=O)(=O)c1cc(-c2cc(C)no2)ccc1OC	–	5.8 µM [falling, full curve]	–
Cc1nonc1C(=O)N/N=C/c1ccc(O)c(O)c1	14.2	–	–
O=c1ccc2cc(S(=O)(=O)N3CCN(c4ccccc4F)CC3)ccc2[nH]1	-13.3	6.51 µM [falling, single point]	–
COc1cc2ccc3c(CCN(C)C)cc(OC)c(OC)c3c2cc1OC	13.5	0.651 µM [rising, single point]	–
CCc1ccc(N(CC(=O)NCc2ccco2)C(=O)CCC(=O)Nc2nccs2)cc1	12.2	0.58 µM [rising, single point]	–
CC(C)(NO)/C(=N\O)c1ccc(Cl)cc1	-14	2.31 µM [rising, single point]	–
Cc1ccoc1C(=O)NCCCNC(=O)c1occc1C	-49.7	8.2 µM [falling, partial curve]	10.3 µM [falling, partial curve, poor fit]
CCOC(=O)c1ccc(NC(=O)CC2C(=O)N(c3ccccc3)C(=O)N2CCCOC)cc1 (configuration not stated)	56.6	6.51 µM [rising, single point]	6.51 µM [rising, partial curve]
CCOC(=O)C1=C(C)N(C)C(C)=C(C(=O)OCC)C1c1ccncc1	-4.3	9.2 µM [rising, partial curve]	–
Cc1ccc2c(c1)N(CC(=O)NCCCN1CCCCC1)C(=O)CO2	6.58	35.5 µM [falling, single point]	–
Cc1cccc(C(=O)OCC(=O)NN2C(=O)NC3(CCCCC3)C2=O)c1	-13.6	0.00651 µM [falling, full curve, poor fit]	–
CCOC(=O)c1sc(N(Cc2ccccc2)C(=O)CSc2nnc(C3CC3)n2N)nc1C	-21.7	–	2.59 µM [falling, single point]
COc1cccc(CN(C)c2nc(-c3cccs3)nc3ccccc23)c1	37.4	0.164 µM [rising, full curve, poor fit]	18.4 µM [rising, partial curve]
O=C(O)c1[nH]c2ccccc2c1NS(=O)(=O)Cc1ccccc1	10.3	–	–
O=C(CSc1ccc(Cl)cc1)N/N=C/c1cccnc1	5.85	–	–
N=c1n(CCN2CCCCC2)c2ccccc2n1CC(O)COc1ccccc1 (configuration not stated)	27.2	14.6 µM [rising, single point]	–

No new results follow: two of the compounds above.
SMILES	cell number change [%]	AC50 [1]	AC50 [2]
Cc1ccoc1C(=O)NCCCNC(=O)c1occc1C	-49.7	8.2 µM [falling, partial curve]	10.3 µM [falling, partial curve, poor fit]
CCOC(=O)c1ccc(NC(=O)CC2C(=O)N(c3ccccc3)C(=O)N2CCCOC)cc1 (configuration not stated)	56.6	6.51 µM [rising, single point]	6.51 µM [rising, partial curve]

Additional records follow.

SMILES	cell number change [%]	AC50 [1]	AC50 [2]
C=CCc1ccccc1OCC(O)CN(C(C)C)C(C)C (configuration not stated)	-24.6	6.51 µM [falling, single point]	–
O=C(Nc1nccs1)c1cc(-c2ccccn2)nc2c(Cl)cccc12	–	3.26 µM [falling, single point]	2.31 µM [falling, single point]
CC(C)NS(=O)(=O)c1ccc(OCC(=O)NC(C)c2ccccc2)cc1 (configuration not stated)	2.77	–	–
COc1ccc(N2CCN(C(=O)CCC(=O)NNc3nc4ccccc4c4nc(C)nn34)CC2)cc1	16.3	3.66 µM [falling, single point]	–
Cc1ccc(NC(=O)c2ccccc2-c2ccc(C(F)(F)F)cc2)cc1S(=O)(=O)N1CCOCC1	2.51	–	–
Cc1cc(C(=O)CSc2nc3ccccc3[nH]2)c(C)n1C	–	0.366 µM [rising, full curve]	1.03 µM [rising, full curve]
CCCNS(=O)(=O)c1ccc(OCC(=O)OC)cc1	-14.6	–	0.00461 µM [falling, full curve, poor fit]
CCOC(=O)/C(=N/Nc1ccc(Cl)cc1)S(=O)(=O)c1ccccc1	34.6	18.4 µM [rising, partial curve]	9.2 µM [rising, partial curve, poor fit]
CC1(C)CC(=O)C=C(Nc2ccc(Cl)cc2)C1	18.6	8.2 µM [rising, partial curve, poor fit]	–
O=C(CSc1nc(SCC(=O)NCc2ccccc2)n(-c2ccccc2)n1)NCc1ccccc1	-11.1	0.731 µM [rising, partial curve, poor fit]	0.82 µM [rising, full curve]
CCOc1ccccc1-c1nc(CN2CCCC2c2nccs2)c(C)o1 (configuration not stated)	9.46	0.103 µM [rising, full curve, poor fit]	–
COc1ccc2oc(-c3ccccc3)c(C(=O)O)c2c1	11.5	29.1 µM [rising, single point]	–
O=C(Nc1ccccn1)c1ccc([N+](=O)[O-])o1	–	18.4 µM [falling, partial curve]	–
Cc1ccc(CSc2nc3nc(C)cc(C)c3c(=O)[nH]2)cc1	35.1	4.61 µM [falling, partial curve]	16.4 µM [rising, partial curve, poor fit]
Cc1cccc(NS(=O)(=O)c2cnc[nH]2)c1	-14.8	0.731 µM [falling, full curve]	–
CCC(=O)N1CCN(C(=O)CC)C1c1ccccc1	-64.2	–	16.4 µM [falling, single point]
Cc1cccc(N2C(=O)c3ccc(C(=O)Nc4ccccn4)cc3C2=O)c1	-37.6	6.51 µM [falling, full curve]	0.00461 µM [falling, full curve, poor fit]
CC(C)NC(=O)CSc1ccccc1C(=O)N1CCN(S(=O)(=O)Cc2ccccc2)CC1	9.64	–	–
C/C(=N/Nc1ncc(Br)cn1)c1ccc(Br)cc1	-9.89	1.16 µM [falling, partial curve, poor fit]	–
CN(C)Cc1c(C(=O)N/N=C/c2ccccc2OCc2ccc(F)cc2)nnn1-c1nonc1N	-0.855	–	–
CCN(c1ccccc1)C1(O)C(=O)c2ccccc2C1=O	-7.61	0.731 µM [falling, single point]	–

Structural class: the entries above with a COOH group (two)
SMILES	cell number change [%]	AC50 [1]	AC50 [2]
O=C(O)c1[nH]c2ccccc2c1NS(=O)(=O)Cc1ccccc1	10.3	–	–
COc1ccc2oc(-c3ccccc3)c(C(=O)O)c2c1	11.5	29.1 µM [rising, single point]	–

(continued)

SMILES	cell number change [%]	AC50 [1]	AC50 [2]
CC(=Nc1ccccc1)c1sc2ccccc2c1O	42	–	29.1 µM [rising, single point]
CCCc1cc(C(=O)OC)c2ccccc2n1	-5.18	8.2 µM [rising, partial curve]	–
CC(C)N(CCNC(=O)c1ccc(NC2=NC3CS(=O)(=O)CC3S2)cc1)Cc1ccco1 (configuration not stated)	8.34	29.1 µM [rising, single point]	–
CCc1ccc(-c2cc(C)no2)cc1S(=O)(=O)N1CCN(c2ccc(F)cc2)CC1	13.1	4.11 µM [rising, full curve]	–
COc1cc(CN(C)C(C)C(=O)Nc2ccc([N+](=O)[O-])cc2Cl)ccc1OC(F)F (configuration not stated)	-20	29.1 µM [rising, single point]	–
Cc1cc(C)nc(OC(=O)c2ccc(Cl)cc2Cl)n1	-7.69	0.00461 µM [falling, full curve, poor fit]	–
OC(Cn1nnc2ccccc21)Cn1c(C(F)(F)F)nc2ccccc21 (configuration not stated)	-25.5	29.1 µM [falling, single point]	–
O=C(CCCc1ccccc1)Nc1ccccc1[N+](=O)[O-]	8.41	–	–
Cc1ccc(S(=O)(=O)NCCSc2nnnn2-c2ccc(C(N)=O)cc2)cc1	42	–	0.651 µM [rising, partial curve]
Cc1ccccc1Cn1ccc(=NCc2ccccc2)cc1	-33.9	29.1 µM [falling, single point]	–
Cc1cc(OC(F)F)ccc1NC(=O)Nc1ccc([N+](=O)[O-])cc1	-45.1	23.1 µM [falling, single point]	29.1 µM [falling, single point]
N#Cc1c(NC(=O)CCCl)sc2c1CCCCC2	16.1	–	–
CC1Sc2ccc(S(=O)(=O)N3CCC(C(=O)NCc4ccco4)CC3)cc2NC1=O (configuration not stated)	14.4	0.58 µM [rising, single point]	–
Cc1occc1C(=O)NCc1nc(-c2ccccc2)no1	-9.21	5.62 µM [falling, single point]	–
Cc1ccc([N+](=O)[O-])cc1NC(=O)CSc1n[nH]c(-c2cccnc2)n1	23	0.651 µM [rising, partial curve, poor fit]	0.13 µM [rising, full curve, poor fit]
Cc1cccc(NC(=O)COc2ccc3oc4c(c3c2)CCCC4)n1	4.57	13 µM [rising, partial curve]	–
CC1=C(C(=O)Nc2ccccc2C(=O)N2CCCCC2)SCCO1	-8.73	29.1 µM [falling, single point]	–
O=CN1CCN(C(=O)c2ccccc2F)CC1	-1.62	6.51 µM [rising, single point]	–
O=C(NCCc1ccc(Cl)cc1)c1ccc2nc[nH]c2c1	191	18.4 µM [rising, partial curve]	0.58 µM [rising, single point]
